# Data published in the supplement of paper PMC8728848.
# The other results are listed elsewhere or left out.
# Columns and labels:
# Test in all cases: glycan array binding signal (z-score within array); higher = stronger binding
# Conditions in all cases: glycan notation: IUPAC condensed, linker removed
# Fuc(a1-2)Gal = molecular target: Fuc(a1-2)Gal
# Method in brief: (§1)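 Arrays were curated from the Consortium for Functional Glycomics database, 3228 in total, and kept only where the protein sequence was available. Binding is expressed as a within-array Z-score. This score was averaged across arrays of the same protein sequence at different concentrations or buffers and across linkers, and negative values can be read as non-binding.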
# Fuc(a1-2)Gal(b1-3)GalNAc = molecular target: Fuc(a1-2)Gal(b1-3)GalNAc
# Method in brief: as §1
# [1] = molecular target: Fuc(a1-2)Gal(b1-3)GalNAc(a1-3)[Fuc(a1-2)]Gal(b1-4)Glc
# Method in brief: as §1
# [2] = molecular target: Fuc(a1-2)Gal(b1-3)GalNAc(a1-3)[Fuc(a1-2)]Gal(b1-4)GlcNAc
# Method in brief: as §1
# [3] = molecular target: Fuc(a1-2)Gal(b1-3)GalNAc(b1-3)Gal
# Method in brief: as §1
# [4] = molecular target: Fuc(a1-2)Gal(b1-3)GalNAc(b1-3)Gal(a1-4)Gal(b1-4)Glc
# Method in brief: as §1
# [5] = molecular target: Fuc(a1-2)Gal(b1-3)GalNAc(b1-4)[Neu5Ac(a2-3)]Gal(b1-4)Glc
# Method in brief: as §1
# Fuc(a1-2)Gal(b1-3)GlcNAc = molecular target: Fuc(a1-2)Gal(b1-3)GlcNAc
# Method in brief: as §1
# [6] = molecular target: Fuc(a1-2)Gal(b1-3)GlcNAc(b1-2)Man(a1-3)[Fuc(a1-2)Gal(b1-3)GlcNAc(b1-2)Man(a1-6)]Man(b1-4)GlcNAc(b1-4)GlcNAc
# Method in brief: as §1
# [7] = molecular target: Fuc(a1-2)Gal(b1-3)GlcNAc(b1-2)Man(a1-3)[Fuc(a1-2)Gal(b1-3)GlcNAc(b1-2)Man(a1-6)]Man(b1-4)GlcNAc(b1-4)[Fuc(a1-6)]GlcNAc
# Method in brief: as §1
# [8] = molecular target: Fuc(a1-2)Gal(b1-3)GlcNAc(b1-3)Gal(b1-4)Glc
# Method in brief: as §1
# [9] = molecular target: Fuc(a1-2)Gal(b1-3)GlcNAc(b1-3)GalNAc
# Method in brief: as §1
# [10] = molecular target: Fuc(a1-2)Gal(b1-3)GlcNAc(b1-3)[Fuc(a1-3)[Gal(b1-4)]GlcNAc(b1-6)]Gal(b1-4)Glc
# Method in brief: as §1
# [11] = molecular target: Fuc(a1-2)Gal(b1-3)GlcNAc(b1-3)[Gal(b1-4)GlcNAc(b1-6)]Gal(b1-4)Glc
# Method in brief: as §1
# [12] = molecular target: Fuc(a1-2)Gal(b1-3)GlcNAc(b1-3)[Neu5Ac(a2-6)Gal(b1-4)GlcNAc(b1-6)]Gal(b1-4)Glc
# Method in brief: as §1
# [13] = molecular target: Fuc(a1-2)Gal(b1-3)[Fuc(a1-4)]GlcNAc
# Method in brief: as §1
# [14] = molecular target: Fuc(a1-2)Gal(b1-3)[Fuc(a1-4)]GlcNAc(b1-2)Man(a1-3)[Fuc(a1-2)Gal(b1-3)[Fuc(a1-4)]GlcNAc(b1-2)Man(a1-6)]Man(b1-4)GlcNAc(b1-4)GlcNAc
# Method in brief: as §1
# [15] = molecular target: Fuc(a1-2)Gal(b1-3)[Fuc(a1-4)]GlcNAc(b1-3)[Fuc(a1-3)[Gal(b1-4)]GlcNAc(b1-6)]Gal(b1-4)Glc
# Method in brief: as §1
# [16] = molecular target: Fuc(a1-2)Gal(b1-3)[Fuc(a1-4)]GlcNAc(b1-3)[Gal(b1-4)GlcNAc(b1-6)]Gal(b1-4)Glc
# Method in brief: as §1
# Fuc(a1-2)Gal(b1-4)Glc = molecular target: Fuc(a1-2)Gal(b1-4)Glc
# Method in brief: as §1
# Fuc(a1-2)Gal(b1-4)Glc6S = molecular target: Fuc(a1-2)Gal(b1-4)Glc6S
# Method in brief: as §1
# Fuc(a1-2)Gal(b1-4)GlcNAc = molecular target: Fuc(a1-2)Gal(b1-4)GlcNAc
# Method in brief: as §1
# [17] = molecular target: Fuc(a1-2)Gal(b1-4)GlcNAc(b1-2)Man(a1-3)[Fuc(a1-2)Gal(b1-4)GlcNAc(b1-2)Man(a1-6)]Man(b1-4)GlcNAc(b1-4)GlcNAc
# Method in brief: as §1
# [18] = molecular target: Fuc(a1-2)Gal(b1-4)GlcNAc(b1-2)Man(a1-3)[Fuc(a1-2)Gal(b1-4)GlcNAc(b1-2)Man(a1-6)]Man(b1-4)GlcNAc(b1-4)[Fuc(a1-6)]GlcNAc
# Method in brief: as §1
# [19] = molecular target: Fuc(a1-2)Gal(b1-4)GlcNAc(b1-2)[Fuc(a1-2)Gal(b1-4)GlcNAc(b1-4)]Man(a1-3)[Fuc(a1-2)Gal(b1-4)GlcNAc(b1-2)Man(a1-6)]Man(b1-4)GlcNAc(b1-4)GlcNAc
# Method in brief: as §1
# [20] = molecular target: Fuc(a1-2)Gal(b1-4)GlcNAc(b1-3)Gal(b1-4)GlcNAc
# Method in brief: as §1
# [21] = molecular target: Fuc(a1-2)Gal(b1-4)GlcNAc(b1-3)Gal(b1-4)GlcNAc(b1-3)Gal(b1-4)GlcNAc
# Method in brief: as §1
# [22] = molecular target: Fuc(a1-2)Gal(b1-4)GlcNAc(b1-3)GalNAc
# Method in brief: as §1
# [23] = molecular target: Fuc(a1-2)Gal(b1-4)GlcNAc(b1-3)[Fuc(a1-2)Gal(b1-4)GlcNAc(b1-6)]GalNAc
# Method in brief: as §1
# [24] = molecular target: Fuc(a1-2)Gal(b1-4)GlcNAc6S
# Method in brief: as §1
binder,measurement,setting,value
"RetS (Pseudomonas aeruginosa), Q9HUV7 (protein) MVRLRIAIGLLVSFLLLLLGPMSPAVADDAGVSSVPLQTTATTPSANQNWRLLRDESAQLRIADVLQRKEQFRPLAKRSFIFPASPQAVWLQVQLPAQKVPSWLWIFAPRVQYLDYYLVQDGQLVRDQHTGESRPFQERPLPSRSYLFSLPVDGKPMTLYVRMTSNHPLMAWFDQIDEAGLVGLEKPAYAFGMLLGGMLLLLMYNLIRFAYSRSASSLWLAAVHAALAVCAAANLGLVAFWLPGLKFNQSLTADLGALGAAVSLLWFACSFFRGTAESRLNRLLQGEALLILAVGAIIAFTQQLWFSWLIYLLVILSSLSVPLIAAWHWYRGYQPARLIVAGMIVFNAGFMVFLPVLFGTKQLDPGWLVLGVFSFATLAGLVLSVSLTERQRLIQQLNLQQRTSEAAHTAELQTKAEFLAKISHEIRTPMNGVLGMTELLLGTPLSAKQRDYVQTIHSAGNELLTLINEILDISKLESGQIELDEVQFDLNALIEDCLDIFRVKAEQQRIELISFTQPQVPRVIGGDPTRLRQVVLSLLDNAFKQTEEGEILLVVALDDQGETPRLRIAVQDSGHPFDAKEREALLTAELHSGDFLSASKLGSHLGLIIARQLVRLMGGEFGIQSGSSQGTTLSLTLPLDPQQLENPTADLDGPLQGARLLVVDDNETCRKVLVQQCSGWGLNVSAVSSGKEALAQLRTKAHLREYFDVVLLDQDMPGMTGMQLAAKIKEDPNLNHDILLIMLTGISNAPSKIIARNAGIKRILAKPVAGYTLKATLADELAQRGVSGVTNYLQPAKEAQAPSLPSDFRILVAEDNSISTKVIRGMLNKLNLQPDTASNGQEALSAMKATQYDLVLMDCEMPVLDGFSATEQLRAWEAHEQRPHTPVVALTAHILSEHKERARLVGMDGHMAKPVELSQLRELIAYWVGERDRRRQGDALPS",glycan array binding signal (z-score),Fuc(a1-2)Gal,1.84
same,glycan array binding signal (z-score),Fuc(a1-2)Gal(b1-3)GalNAc,-0.512
same,glycan array binding signal (z-score),[1],-0.369
same,glycan array binding signal (z-score),[2],0.137
same,glycan array binding signal (z-score),[3],-1.25
same,glycan array binding signal (z-score),[4],-1.04
same,glycan array binding signal (z-score),[5],0.564
same,glycan array binding signal (z-score),Fuc(a1-2)Gal(b1-3)GlcNAc,0.454
same,glycan array binding signal (z-score),[6],0.267
same,glycan array binding signal (z-score),[7],0.997
same,glycan array binding signal (z-score),[8],0.311
same,glycan array binding signal (z-score),[9],-0.701
same,glycan array binding signal (z-score),[10],-1.12
same,glycan array binding signal (z-score),[11],-0.358
same,glycan array binding signal (z-score),[12],1.68
same,glycan array binding signal (z-score),[13],0.195
same,glycan array binding signal (z-score),[14],0.718
same,glycan array binding signal (z-score),[15],0.276
same,glycan array binding signal (z-score),[16],1.19
same,glycan array binding signal (z-score),Fuc(a1-2)Gal(b1-4)Glc,-0.194
same,glycan array binding signal (z-score),Fuc(a1-2)Gal(b1-4)Glc6S,0.411
same,glycan array binding signal (z-score),Fuc(a1-2)Gal(b1-4)GlcNAc,-0.003
same,glycan array binding signal (z-score),[17],0.8
same,glycan array binding signal (z-score),[18],-1.24
same,glycan array binding signal (z-score),[19],-0.527
same,glycan array binding signal (z-score),[20],-0.677
same,glycan array binding signal (z-score),[21],0.275
same,glycan array binding signal (z-score),[22],0.495
same,glycan array binding signal (z-score),[23],0.163
same,glycan array binding signal (z-score),[24],0.503
